PubChem BioAssay AID743121 | NCATS, 2013

- Assay: 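Partners whose loss is lethal together with topoisomerase I blockade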 (primary screen)
- System: MDA-MB-231 cells, a human breast cancer line
- Reagent: single siRNA against human genes, 20 nM siRNA (0.8 pmol per well)
- Time to read-out: 120 h (drug added 48 h after transfection, read 72 h later)
- Challenge: camptothecin 20 nM (about EC30) for 72 h; vehicle 0.1% DMSO in parallel plates
- Read-out: 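CellTiter-Glo ATP signal, scaled to control siRNA as percent viability; sensitisation given as log2 of untreated divided by camptothecin-treated viability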
- Scale: log2 vehicle/camptothecin viability: higher = stronger sensitisation to camptothecin
- Active means: 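Active genes have an RSA gene-level p-value below 0.001, computed from the ratios of their separate siRNAs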
The deposit covers about 26,000 reagents; this is a part drawn at random. Over the whole deposit, 167 (0.63%) got an active call. 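Calls are per gene from RSA p-values that are not deposited; an individual active-marked siRNA can sensitise only weakly.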 Reagents against one gene are numbered here. Not all columns of the deposit are shown.

target | siRNA no. | log2 vehicle/camptothecin viability | activity call
CYP17A1 | 1 | -0.432 | inactive
CYP17A1 | 2 | -0.388 | inactive
CYP17A1 | 3 | -0.126 | inactive
LRPAP1 | 1 | -0.689 | inactive
LRPAP1 | 2 | -0.349 | inactive
LRPAP1 | 3 | -0.415 | inactive
GNB1L | 1 | -0.118 | inactive
GNB1L | 2 | -0.0872 | inactive
GNB1L | 3 | 0.265 | inactive
GNB1L | 4 | -0.514 | inactive
RBBP6 | 1 | -0.0349 | inactive
RBBP6 | 2 | -0.272 | inactive
RBBP6 | 3 | -0.16 | inactive
RBBP6 | 4 | 0.294 | inactive
NPFFR2 | 1 | -0.203 | inactive
NPFFR2 | 2 | 0.191 | inactive
NPFFR2 | 3 | -0.282 | inactive
NPFFR2 | 4 | -0.108 | inactive
CXCR2 | 1 | -0.244 | inactive
CXCR2 | 2 | -0.0798 | inactive
CXCR2 | 3 | 0.0717 | inactive
CXCR2 | 4 | 0.688 | inactive
HHLA1 | 1 | 0.0811 | inactive
HHLA1 | 2 | -0.419 | inactive
HHLA1 | 3 | 0.107 | inactive
TPO | 1 | -0.402 | inactive
TPO | 2 | -0.31 | inactive
TPO | 3 | 0.145 | inactive
TPO | 4 | 0.295 | inactive
CRCP | 1 | 0.0596 | inactive
CRCP | 2 | -0.103 | inactive
CRCP | 3 | -0.119 | inactive
HUNK | 1 | -0.569 | inactive
HUNK | 2 | -0.351 | inactive
HUNK | 3 | 0.321 | inactive
HUNK | 4 | -0.117 | inactive
IFT22 | 1 | 0.106 | inactive
IFT22 | 2 | -0.161 | inactive
IFT22 | 3 | 0.0924 | inactive
IFT22 | 4 | -0.284 | inactive
RAB21 | 1 | -0.128 | inactive
RAB21 | 2 | -0.3 | inactive
RAB21 | 3 | -0.317 | inactive
RAB21 | 4 | 0.035 | inactive
GNRHR | 1 | 0.277 | inactive
GNRHR | 2 | -0.124 | inactive
GNRHR | 3 | 0.0782 | inactive
GNRHR | 4 | -0.609 | inactive
SIN3A | 1 | -0.118 | inactive
SIN3A | 2 | -0.0648 | inactive
SIN3A | 3 | 0.211 | inactive
SIN3A | 4 | -0.116 | inactive
GGH | 1 | -0.0735 | inactive
GGH | 2 | -0.16 | inactive
GGH | 3 | -0.372 | inactive
GGH | 4 | 0.00114 | inactive
WAS | 1 | -0.0898 | inactive
WAS | 2 | -0.0555 | inactive
WAS | 3 | -0.607 | inactive
DNAJA1 | 1 | -0.353 | inactive
DNAJA1 | 2 | -0.104 | inactive
DNAJA1 | 3 | 0.305 | inactive
DNAJA1 | 4 | -0.0432 | inactive
HNRNPM | 1 | -0.472 | inactive
HNRNPM | 2 | -0.641 | inactive
HNRNPM | 3 | -0.0732 | inactive
HNRNPM | 4 | -0.757 | inactive
CFL1 | 1 | -0.137 | inactive
CFL1 | 2 | -0.0442 | inactive
CFL1 | 3 | -0.337 | inactive
MAGI3 | 1 | 0.341 | inactive
MAGI3 | 2 | -0.554 | inactive
MAGI3 | 3 | -0.416 | inactive
MAGI3 | 4 | 0.893 | inactive
SORCS1 | 1 | 0.0733 | inactive
SORCS1 | 2 | -0.208 | inactive
SORCS1 | 3 | 0.0675 | inactive
TDP1 | 1 | 1.7 | inactive
TDP1 | 2 | -0.0966 | inactive
TDP1 | 3 | -0.0602 | inactive
TDP1 | 4 | -0.0916 | inactive
IL19 | 1 | -0.671 | inactive
IL19 | 2 | -0.0403 | inactive
IL19 | 3 | -0.0625 | inactive
IL19 | 4 | 0.486 | inactive
BDKRB1 | 1 | -0.22 | inactive
BDKRB1 | 2 | 0.185 | inactive
BDKRB1 | 3 | -0.444 | inactive
BDKRB1 | 4 | 0.77 | inactive
